According to PubChem BioAssay AID258 (DTP/NCI, 2004):
The list is a part of this screen's results and no random one: it is rich in T/C values a quarter to a half above the control, in often repeated tests (any T/C) and in doses without a T/C. Further doses and runs are listed elsewhere. T/C gives the treated animals as a percentage of the vehicle group. Some doses have a count of surviving animals in place of a T/C: the source files T/C as zero there, which appears to mark a toxic dose or a test without result, not a measured value. Some survivor counts are full or nearly so, which does not show that the dose was tolerated: the source hardly ever lists a survival T/C far under the control, and the zero likely stands for such cases as well. Survivors were counted at the toxicity check, usually on the fifth day, unless a day is given; later deaths do not show. Schedules are NCI's codes, read here as Q, the interval in days (D) or hours (H), X, the number of doses. Some structures stand for samples that the source files as different forms (salt, stereo form or complex); doses refer to the form tested. Some schedule codes hold Z or #, which are not explained here. For survival time, this PubChem deposit counts one and a half times the control or more as active, and values a quarter to a half above the control carry no call in these data; other NCI protocols may use other cut-offs. Some T/C values carry the count of animals alive at the toxicity check (mostly the fifth day); where none is given, no animal had died by that day.

System: CD2F1 mice, L1210 leukemia sc, survival T/C
Experiment: NCI In Vivo Anticancer Drug Screen. Data for tumor model L1210 Leukemia (subcutaneous) in CD2F1 (CDF1) mice
Conditions: T/C endpoint: median survival time, higher T/C = longer survival
Procedure, shortened: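 Transplantable tumor-bearing mice were treated with compound; survival or tumor size measured and expressed as treated-group value (T) divided by vehicle-treated control value (C).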

[1] = dose: 3.0 mg/kg/injection, schedule: Q01DX Z (sc), vehicle: methylcellulose (MC)
[2] = dose: 5.0 mg/kg/injection, schedule: Q01DX Z (sc), vehicle: methylcellulose (MC)
[3] = dose: 8.4 mg/kg/injection, schedule: Q01DX Z (sc), vehicle: methylcellulose (MC)
[4] = dose: 14.0 mg/kg/injection, schedule: Q01DX Z (sc), vehicle: methylcellulose (MC)
[5] = dose: 23.0 mg/kg/injection, schedule: Q01DX Z (sc), vehicle: methylcellulose (MC)
[6] = dose: 39.0 mg/kg/injection, schedule: Q01DX Z (sc), vehicle: methylcellulose (MC)
[7] = dose: 108.0 mg/kg/injection, schedule: Q01DX Z (sc), vehicle: methylcellulose (MC)
[8] = dose: 180.0 mg/kg/injection, schedule: Q01DX Z (sc), vehicle: methylcellulose (MC)
[9] = dose: 300.0 mg/kg/injection, schedule: Q01DX Z (sc), vehicle: methylcellulose (MC)
[10] = dose: 500.0 mg/kg/injection, schedule: Q01DX Z (sc), vehicle: methylcellulose (MC)
[11] = dose: 833.0 mg/kg/injection, schedule: Q01DX Z (sc), vehicle: methylcellulose (MC)
[12] = dose: 267.0 mg/kg/injection, schedule: Q01DX005 (ip), vehicle: other
[13] = dose: 65.0 mg/kg/injection, schedule: Q01DX Z (sc), vehicle: methylcellulose (MC)

**Q.** Which results are given for `CCOC(=O)NP(=O)(N1CC1)N1CC1`?
**A.** survivor count (dose: 3.0 mg/kg/injection, schedule: Q01DX Z (sc), vehicle: water): 6 of 10; survivor count (dose: 5.0 mg/kg/injection, schedule: Q01DX Z (sc), vehicle: water): 5 of 10; T/C (dose: 8.4 mg/kg/injection, schedule: Q01DX Z (sc), vehicle: water): 144 % of control [8 of 10 alive]; T/C (dose: 39.0 mg/kg/injection, schedule: Q01DX Z (sc), vehicle: water): 133 % of control

**Q.** Which results are given for `Nc1cc(C(=O)Nc2ccc(C3=NCCN3)cc2)ccc1C(=O)Nc1ccc(C2=NCCN2)cc1`?
**A.** survivor count [1]: 1 of 10; survivor count [2]: 4 of 10; survivor count [3]: 2 of 10; survivor count [4]: 3 of 10; survivor count [5]: 5 of 10; survivor count [6]: 3 of 10

**Q.** `O=C(Nc1ccc(NC2=NCCN2)cc1)c1cccc(C(=O)Nc2ccc(NC3=NCCN3)cc2)c1` was tested. Which survivor count (dose: 65.0 mg/kg/injection, schedule: Q01DX Z (sc), vehicle: water) did it give?
**A.** Its survivor count is 3 of 8.

**Q.** For `C[C@]12C=CC(=O)C=C1CC[C@@H]1[C@@H]2CC[C@]2(C)OC(=O)CC[C@@H]12`, which survivor count [7] is on record?
**A.** The survivor count was 1 of 10.

**Q.** And the survivor count [8]?
**A.** The survivor count was 0 of 10.

**Q.** And the survivor count [9]?
**A.** The survivor count was 0 of 10.

**Q.** And the survivor count [10]?
**A.** The survivor count was 0 of 10.

**Q.** What about the survivor count [11] of the same compound?
**A.** Its survivor count is 2 of 10.

**Q.** For `Nc1n[nH]c(N)n1`, which T/C (dose: 2000.0 mg/kg/injection, schedule: Q01DX Z (sc), vehicle: water) is on record?
**A.** Its T/C is 127 % of control.

**Q.** What does the source list for `Nc1n[nH]c2ccccc12`?
**A.** T/C (dose: 200.0 mg/kg/injection, schedule: Q01DX009 (ip), vehicle: acid diluted with saline): 149 % of control; survivor count (dose: 400.0 mg/kg/injection, schedule: Q01DX005 (ip), vehicle: acid diluted with saline): 0 of 10; survivor count (dose: 400.0 mg/kg/injection, schedule: Q01DX009 (ip), vehicle: acid diluted with saline): 4 of 5

**Q.** Which results are given for `CCOC(=O)c1c[nH]c2oc(/C=N/N3CC(CN4CCOCC4)OC3=O)cc2c1=O` (stereo not drawn)?
**A.** T/C (dose: 100.0 mg/kg/injection, schedule: Q01DX009 (ip), vehicle: other): 136 % of control; T/C (dose: 178.0 mg/kg/injection, schedule: Q01DX005 (ip), vehicle: other): 133 % of control [9 of 10 alive]; T/C (dose: 200.0 mg/kg/injection, schedule: Q01DX009 (ip), vehicle: other): 148 % of control; T/C [12]: 138 % of control; survivor count [12]: 2 of 10; survivor count (dose: 400.0 mg/kg/injection, schedule: Q01DX005 (ip), vehicle: other): 7 of 10; T/C (dose: 400.0 mg/kg/injection, schedule: Q01DX009 (ip), vehicle: other): 136 % of control [5 of 6 alive]; survivor count (dose: 600.0 mg/kg/injection, schedule: Q01DX005 (ip), vehicle: other): 0 of 10; survivor count (dose: 800.0 mg/kg/injection, schedule: Q01DX009 (ip), vehicle: other): 5 of 6

**Q.** For `COc1ccc2[nH]c3ccc4cc[n+](CCN5CCC(C6CCN(CC[n+]7ccc8ccc9[nH]c%10ccc(OC)cc%10c9c8c7)CC6)CC5)cc4c3c2c1`, which T/C (dose: 6.25 mg/kg/injection, schedule: Q01DX009 (ip), vehicle: Klucel (hydroxypropylcellulose) (HPC)) is on record?
**A.** The T/C was 144 % of control.

**Q.** What about the T/C (dose: 19.2 mg/kg/injection, schedule: Q01DX009 (ip), vehicle: water) of the same compound?
**A.** Its T/C is 125 % of control.

**Q.** What about the T/C (dose: 50.0 mg/kg/injection, schedule: Q01DX009 (ip), vehicle: Klucel (hydroxypropylcellulose) (HPC)) of the same compound?
**A.** The T/C was 126 % of control [5 of 6 alive].

**Q.** What about the survivor count (dose: 53.3 mg/kg/injection, schedule: Q01DX009 (ip), vehicle: water) of the same compound?
**A.** The survivor count was 6 of 6.

**Q.** And the survivor count (dose: 100.0 mg/kg/injection, schedule: Q01DX009 (ip), vehicle: Klucel (hydroxypropylcellulose) (HPC))?
**A.** Its survivor count is 0 of 6.

**Q.** What about the survivor count (dose: 200.0 mg/kg/injection, schedule: Q01DX009 (ip), vehicle: Klucel (hydroxypropylcellulose) (HPC)) of the same compound?
**A.** Its survivor count is 0 of 6.

**Q.** Which survivor count [9] does the source give for `CCn1cnc2c(SC)ncnc21` here?
**A.** Its survivor count is 3 of 10.

**Q.** What about the survivor count [10] of the same compound?
**A.** Its survivor count is 0 of 10.

**Q.** And the survivor count [11]?
**A.** The survivor count was 0 of 10.

**Q.** For `CC[C@@]1(O)C(=O)OCc2c1cc1n(c2=O)Cc2cc3ccccc3nc2-1`, which survivor count (dose: 0.05 mg/kg/injection, schedule: Q01DX Z (sc), vehicle: carboxymethylcellulose (CMC)) is on record?
**A.** Its survivor count is 6 of 10.

**Q.** And the survivor count (dose: 0.08 mg/kg/injection, schedule: Q01DX Z (sc), vehicle: carboxymethylcellulose (CMC))?
**A.** Its survivor count is 1 of 10.

**Q.** And the survivor count (dose: 0.36 mg/kg/injection, schedule: Q01DX Z (sc), vehicle: carboxymethylcellulose (CMC))?
**A.** The survivor count was 4 of 10.

**Q.** `COc1cc([C@@H]2c3cc4c(cc3[C@H](O)[C@H]3COC(=O)[C@H]23)OCO4)cc(OC)c1OC` was tested. Which survivor count [1] did it give?
**A.** The survivor count was 2 of 10.

**Q.** What about the survivor count [2] of the same compound?
**A.** Its survivor count is 1 of 10.

**Q.** And the survivor count [3]?
**A.** Its survivor count is 3 of 10.

**Q.** What about the survivor count [4] of the same compound?
**A.** Its survivor count is 2 of 10.

**Q.** And the survivor count [5]?
**A.** Its survivor count is 1 of 10.

**Q.** What about the survivor count [6] of the same compound?
**A.** Its survivor count is 0 of 10.

**Q.** What about the survivor count [13] of the same compound?
**A.** The survivor count was 0 of 10.

**Q.** With `O=C(Nc1ccc(C2=NCCN2)cc1)c1cccc(C(=O)Nc2ccc(C3=NCCN3)cc2)c1` as the compound, how does the survivor count [2] read?
**A.** The survivor count was 0 of 10.

**Q.** And the survivor count [3]?
**A.** Its survivor count is 3 of 10.

**Q.** What about the T/C [4] of the same compound?
**A.** The T/C was 138 % of control [9 of 10 alive].

**Q.** What about the survivor count [4] of the same compound?
**A.** Its survivor count is 4 of 10.

**Q.** And the survivor count (dose: 16.0 mg/kg/injection, schedule: Q01DX Z (iv), vehicle: water)?
**A.** The survivor count was 5 of 10.

**Q.** What about the survivor count [5] of the same compound?
**A.** Its survivor count is 5 of 10.

**Q.** What about the survivor count (dose: 32.0 mg/kg/injection, schedule: Q01DX Z (iv), vehicle: water) of the same compound?
**A.** Its survivor count is 3 of 10.

**Q.** And the survivor count [6]?
**A.** The survivor count was 5 of 10.

**Q.** And the survivor count [13]?
**A.** Its survivor count is 3 of 10.

**Q.** And the T/C [7]?
**A.** The T/C was 133 % of control [9 of 10 alive].

**Q.** What about the survivor count [7] of the same compound?
**A.** The survivor count was 5 of 10.

**Q.** With `CS(=O)(=O)OCCCl` as the compound, how does the survivor count [4] read?
**A.** The survivor count was 0 of 10.

**Q.** And the survivor count [5]?
**A.** Its survivor count is 1 of 10.

**Q.** And the survivor count [6]?
**A.** Its survivor count is 2 of 10.

**Q.** What about the survivor count [13] of the same compound?
**A.** The survivor count was 0 of 10.

**Q.** And the survivor count [7]?
**A.** The survivor count was 0 of 10.

**Q.** And the survivor count [8]?
**A.** Its survivor count is 0 of 10.

**Q.** And the survivor count [9]?
**A.** The survivor count was 0 of 10.

**Q.** And the survivor count [10]?
**A.** The survivor count was 0 of 10.

**Q.** What does the source list for `CN(Cc1cnc2nc(N)nc(N)c2n1)c1c(Cl)cc(C(=O)NC(CCC(=O)O)C(=O)O)cc1Br` (stereo not drawn)?
**A.** T/C (dose: 28.1 mg/kg/injection, schedule: Q01DX Z (oral), vehicle: other): 127 % of control; T/C (dose: 600.0 mg/kg/injection, schedule: Q01DX Z (oral), vehicle: other): 138 % of control; T/C (dose: 1000.0 mg/kg/injection, schedule: Q01DX Z (oral), vehicle: other): 133 % of control

**Q.** With `ONc1ncnc2nc[nH]c12` as the compound, how does the T/C (dose: 200.0 mg/kg/injection, schedule: Q01DX Z (sc), vehicle: steroid suspending solution) read?
**A.** The T/C was 143 % of control.

**Q.** How did the T/C (dose: 200.0 mg/kg/injection, schedule: Q01DX005 (ip), vehicle: saline) turn out when `O=C(Nc1cccnc1)c1ccc([N+](=O)[O-])s1` was run?
**A.** Its T/C is 137 % of control.

**Q.** And the survivor count (dose: 400.0 mg/kg/injection, schedule: Q01DX005 (ip), vehicle: saline)?
**A.** Its survivor count is 6 of 6.
